This is an account of results in article PMC12796736.

Amino acid sequences for entries named in this document (tags omitted).
UniProt P18872: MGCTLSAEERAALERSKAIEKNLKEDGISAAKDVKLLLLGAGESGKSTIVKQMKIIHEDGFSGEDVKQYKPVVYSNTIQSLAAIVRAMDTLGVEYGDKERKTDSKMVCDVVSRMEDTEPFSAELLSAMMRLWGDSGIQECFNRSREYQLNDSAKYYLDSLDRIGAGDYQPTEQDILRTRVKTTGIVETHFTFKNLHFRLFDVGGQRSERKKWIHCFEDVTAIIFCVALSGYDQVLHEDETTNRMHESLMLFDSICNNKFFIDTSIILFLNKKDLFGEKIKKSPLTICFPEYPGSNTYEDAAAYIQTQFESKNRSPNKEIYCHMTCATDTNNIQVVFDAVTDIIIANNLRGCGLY
UniProt Q80TL4: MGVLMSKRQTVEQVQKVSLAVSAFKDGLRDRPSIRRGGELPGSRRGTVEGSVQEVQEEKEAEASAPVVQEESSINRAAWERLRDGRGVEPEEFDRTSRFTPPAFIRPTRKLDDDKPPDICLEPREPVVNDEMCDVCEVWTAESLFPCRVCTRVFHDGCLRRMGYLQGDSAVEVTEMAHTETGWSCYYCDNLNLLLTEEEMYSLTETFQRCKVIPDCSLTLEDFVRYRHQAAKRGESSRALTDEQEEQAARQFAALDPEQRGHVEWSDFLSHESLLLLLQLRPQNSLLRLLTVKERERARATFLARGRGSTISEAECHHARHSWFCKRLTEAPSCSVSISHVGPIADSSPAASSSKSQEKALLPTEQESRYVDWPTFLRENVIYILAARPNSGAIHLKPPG
UniProt A2ALS5: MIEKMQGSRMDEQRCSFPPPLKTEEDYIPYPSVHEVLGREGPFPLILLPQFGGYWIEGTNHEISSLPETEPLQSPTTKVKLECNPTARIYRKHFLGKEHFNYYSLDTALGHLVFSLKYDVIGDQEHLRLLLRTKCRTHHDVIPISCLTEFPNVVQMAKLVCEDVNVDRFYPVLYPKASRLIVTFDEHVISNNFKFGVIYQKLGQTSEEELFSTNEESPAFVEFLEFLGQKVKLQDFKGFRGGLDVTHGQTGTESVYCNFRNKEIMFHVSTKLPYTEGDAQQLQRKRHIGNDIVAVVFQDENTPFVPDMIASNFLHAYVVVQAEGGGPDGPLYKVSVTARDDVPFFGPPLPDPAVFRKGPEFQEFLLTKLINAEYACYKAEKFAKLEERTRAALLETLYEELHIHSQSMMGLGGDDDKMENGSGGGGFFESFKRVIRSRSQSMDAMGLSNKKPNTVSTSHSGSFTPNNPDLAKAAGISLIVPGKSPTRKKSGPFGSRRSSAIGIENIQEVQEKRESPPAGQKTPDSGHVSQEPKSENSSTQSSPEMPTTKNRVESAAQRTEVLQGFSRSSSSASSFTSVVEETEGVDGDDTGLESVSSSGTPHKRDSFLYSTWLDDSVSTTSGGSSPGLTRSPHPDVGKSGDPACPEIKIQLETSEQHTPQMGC
UniProt P60766: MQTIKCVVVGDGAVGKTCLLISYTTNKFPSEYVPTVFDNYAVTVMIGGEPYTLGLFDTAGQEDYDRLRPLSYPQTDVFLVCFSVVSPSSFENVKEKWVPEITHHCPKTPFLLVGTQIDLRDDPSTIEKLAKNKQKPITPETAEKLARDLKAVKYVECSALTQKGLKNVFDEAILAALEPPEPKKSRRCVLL

These are yes or no findings as the source states them, for the method shown. In cells and extracts the contact can be indirect. These calls come from enrichment with a bait or labelling near it, and not all partners need be listed.

The target in the assay is G⍺o, alpha subunit of the heterotrimeric G protein Go (native, mouse brain) (mouse (endogenous in mouse brain)) (UniProt P18872). Briefly: affinity purification with mass spectrometry; G⍺o immunopurified (sc-13532) from GTPγS-pretreated mouse brain lysate, three independent lysates; LC-MS/MS; enrichment against G⍺o-GDP samples and isotype-matched control antibody samples.

Take “G⍺ inhibitory interacting protein (GINIP) (from UniProt Q80TL4 1-400)”: the binding result is “binds”.

Take Rap1GAP (from UniProt A2ALS5 1-663): the binding entry is recorded as “binds”.

As to CDC42 (from UniProt P60766 1-191), the binding entry is listed as “binds”.

B1: RASA2 (Ras p21 protein activator 2) (protein, UniProt P58069 1-847)
chain: MAAAAPAAAASPEAPAVSGSADPETGDEDSREVRVLQSLRGRIYEAKNLLPYLGPNKMRDCFCTINLDQEEVYRTQVVEKSLSPYFSEEFYFEIPRTFQYLSFYVYDKNVLQRDLRIGKVAIKKEDLCSHSGKETWFSLQPIDSNSEVQGKVHLELRLNELITENGTVCQQLVVHIKACHGLPLINGQSCDPYATVSLVGPSRNDQKKTKVKKKTSNPQFNEVFYFEVTRSSSYSRKSQFQVEEEDIEKLEIRIDLWNNENLVQDVFLGEIKVPVNVLRSDSFHQAWYLLQPRDNGNKSSKTDDLGSLLLTLCYTEDCVLPSEYYGPLKTLLLKSPDVQPVSASAAYILGEICQDQKDAVLPLVRLLLHHNKLVPFITAVAELDLKDTPDANAIFRGNSLATQCLTEMMKIVGGHYLKVTLKPVLDEICESSKSCEIDPVKLKEGDNVENNKENLYYYVDKVFNTIVGSSVSCPTVMCDIFYSLRQMAAKKFPNHPHVQYSAVSSFVFLRFFAVAILSPHAFHLRPHYPDTQTVRTLTLISKTIQIIGNWGCQSRKKSRFKKSVMCEFLKMFQEERYFTDVKKFLDEISSTETKESSGTSEPVHLKEGEMYKRAQGRTRIGKKNFKKRWFCLTSRELTYHRQQGKDAIYTIPVKNILAVEKLEEGSFNKKNMFQVIHTEKTLYIQANNCVEANEWIDVLCRVSRCNHNRLSSFHPSAYLNGNWLCCQETSESTPGCKPCTAGIPADIQIDIDEDRETERIYSIFTLSLLKLQKMEETCGSIAVYQGPQKEPGYSKFTIEDSVATFKTIQQIKSTIEKLDEPHEKYRKKRSSSAKYGSKENPIVGKIS
As to B1, the binding result is on record as “binds”.

B2: GPR158 (receptor, UniProt Q8C419 25-1200)
chain: SLDPPGRPDSPRERTPRGKQHGQQLPRASAPDPSIPWSRSTDGTILAQKLAEEVPVDVASYLYTGDFHQLKRANCSGRYELAGLPGKSPSLASSHPSLHGALDTLTHATNFLNMMLQSNKSREQTVQDDLQWYQALVRSLLEGEPSISRAAITFSTESLSTPAPQVFLQATREESRILLQDLSSSAHHLANATLETEWFHGLRRKWRPHLHRRGSNQGPRGLGHSWRRRDGLGGDRSHVKWSPPYLECENGSYKPGWLVTLSAAFYGLQPNLVPEFRGVMKVDISLQKVDIDQCSSDGWFSGTHKCHLNNSECMPIKGLGFVLGAYQCICKAGFYHPRVFSVNNFQRRGPDHHFSGSTKDVSEETHVCLPCREGCPFCADDRPCFVQEDKYLRLAIISFQALCMLLDFVSMLVVYHFRKAKSIRASGLILLETILFGSLLLYFPVVILYFEPSTFRCILLRWARLLGFATVYGTVTLKLHRVLKVFLSRTAQRIPYMTGGRVMRMLAVIVLVVFWFLVGWTSSMCQNLERDILLVGQGQTSDHLTFNMCLIDRWDYMTAVAEFLFLLWGIYLCYAVRTVPSAFHEPRYMAVAVHNELIITAIFHTIRFVLASRLQPDWMLMLYFAHAHLTVTVTIGLLLIPKFSHSSNNPRDDIATEAYEDELDMGRSGSYLNSSINSAWSEHSLDPEDIRDELKKLYAQLEIYKRKKMITNNPHLQKKRCSKKGLGRSIMRRITEIPETVSRQCSKEDKEGTDHSAAKGTGLVRKNPTESSGNTGRPKEESLKNRVFSLKKSHSTYDHVRDQTVESSSLPMESQEEEATENSTLESLSSKKLTQKLKEDSEAESTESVPLVCKSASAHNLSSEKKPGHPRTSMLQKSLSVIASAKEKTLGLAGKTQTLVMEDRAKSQKPKDRETIRKYSNSDNVETIPNSGHMEEPRKPQKSGIMKQQRVSLPTANPDVSSGITQIKDNFDIGEVCPWEVYDLTPGPMPSEPKAQKHVSIAASEVEQNPASFLKEKSYHKSKATEGLYQANHKSIDKTEVCPWEIHSQSLLEDENRLISKTPVLPGRAREENGSQLYTTNMCAGQYEELPHKVVAPKVENENLNQMGDQEKQTSSSVDIIPGSCNSSNNSHQPLTSRAEVCPWEFEPLEQPNAERSVTLPASSALSANKIPGPQK
As to B2, the binding entry is reported as “binds”.

B3: RGS20 (protein, UniProt Q9QZB1 1-239)
chain: MRTANGGPRARASPSASPADPGLPEGSERTEMRMRQMCGGSETQGPAPSQQGGRGSNACCFCWCCCCTCSCLTVRNQEDQRPQRASHEIRTDIPACEESPTPTLEEVCAWAQSFDNLMVTPAGRNAFREFLRTEFSEENMLFWMACEELKREANKSTIEEKARIIYEDYISILSPKEVSLDSRVREVINRNMVDPSQHIFDDAQLQIYTLMHRDSYPRFMNSTVYKDLLTSLAEKTVEA
On to B3, for which the binding entry was “binds”.

B4: GRIN1 (G protein–regulated inducer of neurite outgrowth 1) (protein, UniProt Q3UNH4 1-932)
chain: MRDCCSSPKAIPAPPRHALDQSLGMDPRHTSSSGAAEGASCSERPAGSLACPSPNCSPLPETPRAHGALTSDNSGTTLFGKPEPMSSAEATPTASEIRNPVFSGKMDGNSLKQADSTSTRKEEAGSLRNEESMLKGKAEPMIYGKGEPGTVGRVDCTASGAENSGSLGKVDMPCSSKVDIVSPGGDNAGSLRKVETISSGKMDPKTENVMHSRRERPGSTGEGDLVSLRENDMKPPDNTDSASTKKTDPEFSGKLTPGSSGKTELVSSVTVAPVTSENVNPVCSGGAGPAAVGNSETLSSVKKDPQLLGKKEAVSSGEGGSVSVRMAETVSARQPEGMFPAKTDSTSSNSTGPSGRADPVSLRNSELVSPVKPERLSSGQAERVSLVKTETLSSGKEDPRSSRRVDHTTVTGNMQTSQKGNPESSGKTDLGSSSSGDTRSLGTWGSLSAAKAEVTEGKGDPQPWKKASLPASEKTDPLASSKAGSASQGKAETVSPGEVDAMTLGKTVPTSSGKTALVSPGKVDLMTSERAEGIPELQASEKGNPVNSTRVDTGATGSTEPKSGVKVITQIPGATSPGKVETPSLQKEQPQLSEKTDPSRKVDPPTTVEPVSLGKADSASPSPRKAESQTSAKTVPQAPDKATSSLRQSDGTPYSSAQPQRDTRSIGSLPEREPSASTSQKDLAAAAAQKSPSAEAAAPPPGPRTRDNFTKAPSWDAGAPPPREDAGTQAGAQACVSVAVSPMSPQDGAGGPAFSFQAAPRAPSPAPRPPSRRDAGLQVSLGAAETRSVATGPMTPQAAAPPAVPPVFPEVRVRPGSVLAAALAPQEATEPVRDVSWDEKGMTWEVYGASMEVEVLGMAIQKHLERQIEEHGRQGAPAPAPPPAVRAGPGRAGSVRTAPAEGAAKRPPGLFRALLQSVRRPRCCSRAGPTAE
As for B4, the binding entry is on record as “binds”.

B5: RASA3 (Ras p21 protein activator 3), native, mouse brain (protein, UniProt Q60790 1-834)
chain: MAVEEEGLRVFQSVRIKIGEAKNLPSYPGPNKMRDCYCTVNLDQEEVFRTKIVEKSLCPFYGEDFYCEIPRSFRHLSFYIFDRDVFRRDSIIGKVAIQKEDLQRYHNRDTWFQLQHVDADSEVQGKVHLELRLSEVITDTGVVCHKLAARIFECQGLPIVNGQCDPYATVTLAGPFRSEAKKTKVKKKTNNPQFDEVFYFEVTRPCSYSKKSHFDFEEEDVDKLEIRVDLWNASNLKFGDEFLGELRLPLKILRHSSSYEAWYFLQPRDNGNKSLKPDDLGSLRLNVVYTEDHVFSSEYYSPLRDLLLKSADVEPVSASAAHILGEVCRDKQEAAIPLVRLLLHYGRVVPFISAIASAEVKRTQDPNTIFRGNSLTSKCIDETMKLAGMHYLHVTLKPTIEEICQSHKSCEIDPVKLKDGENLENNMESLRQYVDRIFTVITKSGVSCPTVMCDIFFSLREAAAKRFQDDLDVRYTAVSSFIFLRFFAPAILSPNLFQLTPHHTDPQTSRTLTLISKTIQTLGSLSKSKSASFKESYMATFYEFFNEQKYADAVKNFLDLISSSGRRDPKSIEQPILLKEGFMIKRAQGRKRFGMKNFKKRWFRLTNHEFTYQKSKGDQPLCNIPIENILAVERLEEESFRMKNMFQVIQPERALYIQANNCVEAKDWIDILTKVSQCNQKRLTVFHPSAYLNGHWLCCRASSDTAAGCTPCTGGLPANIQLDIDGDRETERIYSLFNLYMGKLEKMQEACGSKSVYDGPEQEEYSTFVIDDPQETYKTLKQVIAGVGTLEQEHAQYRRDKFKKTRYGSQEHPIGDKSFQNYIRQQSEISTHSI
As for B5, the binding result is reported as “binds”.

B6: GABAB receptor subunit GABABR2 (receptor, UniProt Q80T41 41-940)
chain: WARGAPRPPPSSPPLSIMGLMPLTKEVAKGSIGRGVLPAVELAIEQIRNESLLRPYFLDLRLYDTECDNAKGLKAFYDAIKYGPNHLMVFGGVCPSVTSIIAESLQGWNLVQLSFAATTPVLADKKKYPYFFRTVPSDNAVNPAILKLLKHFRWRRVGTLTQDVQRFSEVRNDLTGVLYGEDIEISDTESFSNDPCTSVKKLKGNDVRIILGQFDQNMAAKVFCCAFEESMFGSKYQWIIPGWYEPAWWEQVHVEANSSRCLRRSLLAAMEGYIGVDFEPLSSKQIKTISGKTPQQYEREYNSKRSGVGPSKFHGYAYDGIWVIAKTLQRAMETLHASSRHQRIQDFNYTDHTLGRIILNAMNETNFFGVTGQVVFRNGERMGTIKFTQFQDSREVKVGEYNAVADTLEIINDTIRFQGSEPPKDKTIILEQLRKISLPLYSILSALTILGMIMASAFLFFNIKNRNQKLIKMSSPYMNNLIILGGMLSYASIFLFGLDGSFVSEKTFETLCTVRTWILTVGYTTAFGAMFAKTWRVHAIFKNVKMKKKIIKDQKLLVIVGGMLLIDLCILICWQAVDPLRRTVERYSMEPDPAGRDISIRPLLEHCENTHMTIWLGIVYAYKGLLMLFGCFLAWETRNVSIPALNDSKYIGMSVYNVGIMCIIGAAVSFLTRDQPNVQFCIVALVIIFCSTITLCLVFVPKLITLRTNPDAATQNRRFQFTQNQKKEDSKTSTSVTSVNQASTSRLEGLQSENHRLRMKITELDKDLEEVTMQLQDTPEKTTYIKQNHYQELNDILSLGNFTESTDGGKAILKNHLDQNPQLQWNTTEPSRTCKDPIEDINSPEHIQRRLSLQLPILHHAYLPSIGGVDASCVSPCVSPTASPRHRHVPPSFRVMVSGL
As to B6, the binding result is “binds”.

B7: GRIN3 (protein, UniProt Q8BWS5 1-763)
chain: MGTVPDPLRVTKASIVAASGKEESRGESQSVSPQPAQPDNNASGIGNVPAELSLQLSAAAQALMQACVSESSQQDMASPGVFSEGEPVSPKQKTPDDFLLHGSKESAAPGLNATAQKELISAPCLISVVQHTHHAIQRDAPNTSTCAVPEGSLVKSEANSNGENPEKPGCPARVTCCSSKNQEGLCDFPSPENSQGILQTPDIASPSADRPEGEGQKVINNITAVSSEPPVREGCSENKQPSATALNTTAERSENPPPSHLTSKGATCSSEARQALLPAQYPVSRFKEASTMTCQAESGAKEVSGRAWQDAEVQAVASVESRSVSTSPSILPAYLKENPAPELENGQEQLRVICHGKGSGNHLLELSNSMVDSQESRQCPSIVPQVHIQAATATPAAFKGGCKPANQPAEGLKSPLIHVTSSQNTETEEDLRLSASKEATSRQPEGTNPDFQKANAIGQISLPAGSQAEINQGLWNSGPREPEIVVKTAKDHKAESSCKPSNSGGGANKDYPPESLDPTDKKGAKDKKPASPLIVKDHAPGATSTLDAKTLLLNPKSQVKEGEGPEVSPAPSPGRKSQQNTLEELRQPKTVMSLSLPSDGTGDSSPGSGKRTPSLSVKASPRRGSRVSEFLKELSVTAAAAQVGLTPGEKKKQLGADSKLHLKQSKRVRDVVWDDQGMTWEVYGASLDPESLGVAIQNHLQRQIREHEKIVKTQSGQTRRSISSDSSSSKKLKGRQHGVLQSMLQNFRRPNCCVRPAPSSVLD
Regarding B7, the binding result is recorded as “binds”.
